Some peptides are written in HELM: one residue between dots, names in brackets for other building blocks, links after the first $.
Experiment: general procedure: Fmoc solid-phase peptide synthesis; Wang resin (Ile-Wang resin); HATU/DIPEA (spacer and chelator coupling)
Conditions: for final HPLC purity: analytical HPLC
[1] = whole synthesis, scale of the general procedure 25 µmol

Substance	isolated mass (whole synthesis) [mg]	final HPLC purity [1] [%]	isolated yield (whole synthesis, overall, scale of the general procedure 25 µmol)	isolated yield [1] [%]	step yield (late stage modification step) [%]	final HPLC purity (late stage modification step) [%]
PEPTIDE1{[For].M.V.P.I.K.I}|PEPTIDE2{[DOTA].[Ahx]}$PEPTIDE1,PEPTIDE2,6:R3-2:R2$$$V2.0	9.45	99	28 ± 6% (n = 6)	31		
^natGa-f-MVPIK(Ahx-DOTA)I [natGa-f-MVPIK(Ahx-DOTA)I]					73	66
^natLu-f-MVPIK(Ahx-DOTA)I [natLu-f-MVPIK(Ahx-DOTA)I]					80	99
